In US9409952B2, “Peptide-compound cyclization method” (Chugai Seiyaku Kabushiki Kaisha, priority 2011, dated 2016):

Assay: PAMPA (parallel artificial membrane permeability assay)
Type: in vitro ADME
Method: 4 μL of a phospholipid-organic solvent solution composed of 10% (w/v) of egg lecithin, 0.5% (w/v) of cholesterol and dodecane (all purchased from Fluka) was added to a Millipore 96-well membrane filter (hydrophobic PVDF (polyvinylidene difluoride), pore size 0.45 microm) (purchased from Millipore Japan) to make an artificial phospholipid membrane.
A DMSO solution containing the compound at a concentration of 10 mM was added in a percentage of 0.5% (v/v) to a 50 mM MOPSO buffer, pH 6.5, containing 5.0% (w/v) of glycocholic acid, and 330 μL of the mixture was added to a 96-well plate made of Teflon (donor plate). […] These plates were allowed to stand at 37° C. for 18 hours, after which the concentrations of the compound in the solutions in the donor plate and the acceptor plate were measured by LC/MS or LC/UV, and the membrane permeation rate of the compound (Pe) was calculated by the following formulas (1) and (2), where t is the testing time, A is the membrane filter area, VD is the amount of the donor solution, VA is the amount of the acceptor solution, CD,t is the concentration of the compound in the donor solution at the time t, and CA,t is the concentration of the compound in the acceptor solution at the time t.

- Papp at 18 h, 50 µM: 15 nm/s
Compound: NS(=O)(=O)c1cc(C(=O)O)c(NCc2ccco2)cc1Cl [furosemide, reference compound]
